Test results as given in paper PMC12378631 (RSC Medicinal Chemistry, 2025).
Some peptides are written in HELM: one residue between dots, names in brackets for other building blocks, links after the first $.

Experiment: general procedure: hybrid (solid and solution phase) peptide synthesis; 2-chlorotrityl chloride resin (2-CTC); DIC/oxyma/DIPEA (SPPS); NHS/DCC (solution C-terminal coupling)
Conditions: TFA salt

| Substance | step yield |
| --- | --- |
| PEPTIDE1{[hCys].[b3hTyr].C.[4Amb]}$PEPTIDE1,PEPTIDE1,1:R3-3:R3$$$V2.0 | 15% |
| PEPTIDE1{[hCys].[b3hTyr].C.[3Amb]}$PEPTIDE1,PEPTIDE1,1:R3-3:R3$$$V2.0 | 19% |
| PEPTIDE1{[hCys].[b3hTyr].C.[2Amb]}$PEPTIDE1,PEPTIDE1,1:R3-3:R3$$$V2.0 | 11% |
